Measured values published in the supplement of paper PMC12819154, “High-throughput peptide-centric local stability assay extends protein–ligand identification to membrane proteins, tissues and bacteria” (Nature Structural & Molecular Biology, 2025).
The list shows a part of the results. Most entries show no effect beyond the scatter of the controls.

Sequences of proteins named here, by UniProt entry; tags and fusion partners are left off. A change or cut given only in a name is not applied to a line headed by its entry.
UniProt P78347: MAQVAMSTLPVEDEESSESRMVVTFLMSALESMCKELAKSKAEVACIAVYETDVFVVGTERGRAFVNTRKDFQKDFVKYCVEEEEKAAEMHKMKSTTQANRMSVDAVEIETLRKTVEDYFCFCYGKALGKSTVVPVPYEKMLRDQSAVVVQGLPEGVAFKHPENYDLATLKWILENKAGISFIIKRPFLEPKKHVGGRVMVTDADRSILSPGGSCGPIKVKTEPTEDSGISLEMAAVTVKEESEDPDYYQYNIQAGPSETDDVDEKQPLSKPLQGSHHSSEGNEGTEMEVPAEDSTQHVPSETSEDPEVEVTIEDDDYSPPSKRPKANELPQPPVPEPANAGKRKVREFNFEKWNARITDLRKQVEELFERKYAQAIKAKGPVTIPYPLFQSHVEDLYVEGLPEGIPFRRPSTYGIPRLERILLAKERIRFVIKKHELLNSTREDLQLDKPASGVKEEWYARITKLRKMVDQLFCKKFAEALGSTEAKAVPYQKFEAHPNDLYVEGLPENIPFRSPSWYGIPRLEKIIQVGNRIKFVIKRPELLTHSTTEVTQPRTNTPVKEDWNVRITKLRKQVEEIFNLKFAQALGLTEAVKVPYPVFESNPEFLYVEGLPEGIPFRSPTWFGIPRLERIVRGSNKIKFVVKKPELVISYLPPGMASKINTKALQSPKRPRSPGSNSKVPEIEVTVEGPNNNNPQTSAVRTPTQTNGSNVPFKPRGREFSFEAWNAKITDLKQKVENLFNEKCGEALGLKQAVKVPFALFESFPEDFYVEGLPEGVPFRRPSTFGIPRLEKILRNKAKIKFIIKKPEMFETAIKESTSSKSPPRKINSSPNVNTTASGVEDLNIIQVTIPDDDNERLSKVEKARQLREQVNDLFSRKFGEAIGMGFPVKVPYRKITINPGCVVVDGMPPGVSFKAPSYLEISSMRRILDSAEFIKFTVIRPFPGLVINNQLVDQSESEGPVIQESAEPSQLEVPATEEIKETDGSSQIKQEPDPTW
UniProt P78417: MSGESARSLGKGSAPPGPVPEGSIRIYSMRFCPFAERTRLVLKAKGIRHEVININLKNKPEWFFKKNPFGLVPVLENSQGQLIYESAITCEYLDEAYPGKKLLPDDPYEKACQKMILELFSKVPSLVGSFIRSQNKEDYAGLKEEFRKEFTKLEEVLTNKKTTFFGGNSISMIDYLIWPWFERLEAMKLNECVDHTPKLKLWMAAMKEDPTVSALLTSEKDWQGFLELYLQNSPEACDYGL
UniProt P55854, whole entry: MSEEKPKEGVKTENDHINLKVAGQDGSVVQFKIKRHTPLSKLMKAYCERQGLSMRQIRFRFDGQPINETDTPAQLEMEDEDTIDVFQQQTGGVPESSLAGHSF
UniProt P56524: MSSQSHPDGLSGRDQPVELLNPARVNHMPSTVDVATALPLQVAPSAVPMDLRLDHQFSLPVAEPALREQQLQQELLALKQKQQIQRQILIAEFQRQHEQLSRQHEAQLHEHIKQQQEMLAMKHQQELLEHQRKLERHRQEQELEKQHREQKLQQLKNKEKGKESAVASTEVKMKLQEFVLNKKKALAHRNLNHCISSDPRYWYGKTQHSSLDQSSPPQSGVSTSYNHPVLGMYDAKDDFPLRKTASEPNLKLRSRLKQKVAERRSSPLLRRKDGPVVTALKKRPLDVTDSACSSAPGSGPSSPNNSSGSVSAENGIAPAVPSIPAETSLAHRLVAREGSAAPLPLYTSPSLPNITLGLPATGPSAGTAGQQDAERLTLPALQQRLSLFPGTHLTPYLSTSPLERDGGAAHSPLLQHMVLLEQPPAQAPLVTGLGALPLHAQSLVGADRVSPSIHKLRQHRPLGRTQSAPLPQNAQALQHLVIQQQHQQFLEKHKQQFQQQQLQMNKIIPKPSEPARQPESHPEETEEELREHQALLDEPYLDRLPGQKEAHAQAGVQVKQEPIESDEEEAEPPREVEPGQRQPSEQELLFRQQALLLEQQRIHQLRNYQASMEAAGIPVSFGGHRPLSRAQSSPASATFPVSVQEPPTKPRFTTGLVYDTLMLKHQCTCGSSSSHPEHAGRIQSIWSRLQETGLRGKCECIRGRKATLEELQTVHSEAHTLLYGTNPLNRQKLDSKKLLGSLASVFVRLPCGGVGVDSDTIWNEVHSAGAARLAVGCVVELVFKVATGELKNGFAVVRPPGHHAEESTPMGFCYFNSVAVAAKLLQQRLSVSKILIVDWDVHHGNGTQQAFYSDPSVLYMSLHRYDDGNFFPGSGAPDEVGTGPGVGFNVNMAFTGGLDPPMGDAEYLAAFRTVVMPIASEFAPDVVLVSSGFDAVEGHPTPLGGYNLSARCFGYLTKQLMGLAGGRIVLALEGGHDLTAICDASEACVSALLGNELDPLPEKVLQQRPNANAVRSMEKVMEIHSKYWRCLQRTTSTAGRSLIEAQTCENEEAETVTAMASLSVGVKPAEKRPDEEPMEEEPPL
UniProt P56381: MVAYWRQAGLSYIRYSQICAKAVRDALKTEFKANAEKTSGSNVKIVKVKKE
UniProt P61960, whole entry: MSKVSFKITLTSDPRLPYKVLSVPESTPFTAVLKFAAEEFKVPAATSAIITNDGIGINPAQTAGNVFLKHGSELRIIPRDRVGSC
UniProt P59923: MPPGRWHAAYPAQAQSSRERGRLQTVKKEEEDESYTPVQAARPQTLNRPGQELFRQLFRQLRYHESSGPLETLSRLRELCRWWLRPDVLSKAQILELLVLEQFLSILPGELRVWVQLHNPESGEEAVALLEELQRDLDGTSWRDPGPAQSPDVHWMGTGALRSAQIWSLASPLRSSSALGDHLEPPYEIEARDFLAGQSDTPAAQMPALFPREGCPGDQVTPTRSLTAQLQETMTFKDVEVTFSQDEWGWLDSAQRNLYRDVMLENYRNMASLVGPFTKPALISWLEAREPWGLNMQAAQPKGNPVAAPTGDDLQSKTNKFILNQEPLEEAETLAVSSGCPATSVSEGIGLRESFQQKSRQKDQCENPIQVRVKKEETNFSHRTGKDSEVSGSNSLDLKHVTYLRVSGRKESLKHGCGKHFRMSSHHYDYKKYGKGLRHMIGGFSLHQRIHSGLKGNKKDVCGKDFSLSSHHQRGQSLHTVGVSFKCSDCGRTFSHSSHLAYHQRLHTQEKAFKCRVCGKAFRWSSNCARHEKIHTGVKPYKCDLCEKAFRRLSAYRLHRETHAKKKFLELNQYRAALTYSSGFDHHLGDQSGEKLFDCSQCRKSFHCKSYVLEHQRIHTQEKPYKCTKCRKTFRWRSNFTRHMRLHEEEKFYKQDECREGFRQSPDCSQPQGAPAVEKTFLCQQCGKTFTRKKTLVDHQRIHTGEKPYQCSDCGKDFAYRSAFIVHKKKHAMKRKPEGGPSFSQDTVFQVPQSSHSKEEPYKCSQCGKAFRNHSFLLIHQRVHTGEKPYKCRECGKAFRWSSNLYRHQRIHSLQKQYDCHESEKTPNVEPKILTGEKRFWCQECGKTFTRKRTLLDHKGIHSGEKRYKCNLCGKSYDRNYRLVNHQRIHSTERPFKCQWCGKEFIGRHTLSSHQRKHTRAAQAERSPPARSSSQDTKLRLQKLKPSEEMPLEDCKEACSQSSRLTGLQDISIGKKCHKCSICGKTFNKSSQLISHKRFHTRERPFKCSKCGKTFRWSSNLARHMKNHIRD
UniProt P81877: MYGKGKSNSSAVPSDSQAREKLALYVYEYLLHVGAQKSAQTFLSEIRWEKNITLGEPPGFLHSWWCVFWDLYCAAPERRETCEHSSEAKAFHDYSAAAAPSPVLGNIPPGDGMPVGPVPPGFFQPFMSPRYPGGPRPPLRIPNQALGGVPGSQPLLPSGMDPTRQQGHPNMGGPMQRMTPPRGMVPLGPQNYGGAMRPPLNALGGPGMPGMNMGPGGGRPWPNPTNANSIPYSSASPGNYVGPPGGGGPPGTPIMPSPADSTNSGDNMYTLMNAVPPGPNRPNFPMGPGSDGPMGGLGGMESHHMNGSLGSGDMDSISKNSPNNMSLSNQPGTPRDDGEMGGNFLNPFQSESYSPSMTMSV
UniProt P68871: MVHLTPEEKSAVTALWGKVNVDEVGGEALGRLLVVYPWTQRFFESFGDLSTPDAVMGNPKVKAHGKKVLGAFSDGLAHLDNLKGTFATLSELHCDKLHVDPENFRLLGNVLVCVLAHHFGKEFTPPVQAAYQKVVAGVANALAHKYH
UniProt P78312: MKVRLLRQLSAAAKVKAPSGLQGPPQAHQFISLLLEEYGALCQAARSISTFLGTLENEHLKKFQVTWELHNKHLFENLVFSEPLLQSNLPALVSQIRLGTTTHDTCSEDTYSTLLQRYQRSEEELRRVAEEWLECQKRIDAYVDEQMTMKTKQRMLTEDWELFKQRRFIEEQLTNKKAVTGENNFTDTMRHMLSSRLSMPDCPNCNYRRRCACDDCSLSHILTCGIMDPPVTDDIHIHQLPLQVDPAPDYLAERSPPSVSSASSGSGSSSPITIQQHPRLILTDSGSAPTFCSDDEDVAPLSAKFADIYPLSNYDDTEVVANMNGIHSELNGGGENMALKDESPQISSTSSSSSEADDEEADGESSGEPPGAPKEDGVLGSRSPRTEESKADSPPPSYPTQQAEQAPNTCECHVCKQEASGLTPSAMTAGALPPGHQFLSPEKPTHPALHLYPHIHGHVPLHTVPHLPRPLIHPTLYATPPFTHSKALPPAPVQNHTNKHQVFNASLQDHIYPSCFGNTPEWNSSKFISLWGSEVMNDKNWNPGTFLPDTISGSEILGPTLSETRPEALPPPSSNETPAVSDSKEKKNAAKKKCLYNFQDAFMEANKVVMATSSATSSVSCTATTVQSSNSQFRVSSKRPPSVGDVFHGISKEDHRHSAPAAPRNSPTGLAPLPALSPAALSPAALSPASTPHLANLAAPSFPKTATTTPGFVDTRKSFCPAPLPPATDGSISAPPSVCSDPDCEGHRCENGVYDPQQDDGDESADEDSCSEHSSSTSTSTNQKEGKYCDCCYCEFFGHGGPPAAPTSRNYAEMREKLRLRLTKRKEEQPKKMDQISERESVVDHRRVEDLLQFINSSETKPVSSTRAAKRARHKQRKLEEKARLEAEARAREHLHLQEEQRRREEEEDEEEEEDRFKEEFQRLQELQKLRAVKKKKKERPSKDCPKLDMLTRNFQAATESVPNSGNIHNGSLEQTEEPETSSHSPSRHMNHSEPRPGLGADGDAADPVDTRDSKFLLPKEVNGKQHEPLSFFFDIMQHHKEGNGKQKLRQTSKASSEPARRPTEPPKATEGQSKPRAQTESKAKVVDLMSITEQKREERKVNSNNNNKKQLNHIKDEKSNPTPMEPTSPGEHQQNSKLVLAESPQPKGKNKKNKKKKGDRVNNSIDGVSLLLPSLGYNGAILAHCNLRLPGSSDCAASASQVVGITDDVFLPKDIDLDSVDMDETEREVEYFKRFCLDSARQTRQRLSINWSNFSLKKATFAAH

compound: Cc1nc(Nc2ncc(C(=O)Nc3c(C)cccc3Cl)s2)cc(N2CCN(CCO)CC2)n1 [dasatinib]; experiment: log2 fold change of tryptic peptide abundance, ligand vs vehicle (limited proteolysis) (log2 ratio); higher = more trypsin-susceptible (destabilized); conditions: ligand concentration: 5 uM; sample: K562 cleared lysate

Row | Target | log2 fold change
1 | GTF2I (peptide sequence: EDLQLDKPASGVK, peptide start residue: 444) (UniProt P78347) | 0.192
2 | GSTO1 (peptide sequence: VPSLVGSFIR, peptide start residue: 123) (UniProt P78417) | 0.675
3 | SUMO3 (peptide sequence: TENDHINLK, peptide start residue: 12) (UniProt P55854) | -0.126
4 | HDAC4 (peptide sequence: QQQEMLAMK, peptide start residue: 114) (UniProt P56524) | -0.385
5 | UniProt P56381 (peptide sequence: DALKTEFKANAEK, peptide start residue: 25) | -0.468
6 | UniProt P61960 (peptide sequence: ITLTSDPRLPYK, peptide start residue: 8) | -0.0581
7 | ZNF445 (peptide sequence: TGKDSEVSGSNSLDLK, peptide start residue: 384) (UniProt P59923) | 0.538
8 | SSBP2 (peptide sequence: ETCEHSSEAK, peptide start residue: 80) (UniProt P81877) | -0.0672
9 | HBB (peptide sequence: VNVDEVGGEALGR, peptide start residue: 19) (UniProt P68871) | 0.42
10 | C4ORF8 (peptide sequence: ATEGQSKPR, peptide start residue: 1069) (UniProt P78312) | -0.561
11 | UniProt P62841 (peptide sequence: KQHSLLKR, peptide start residue: 52) | -0.177
